Data reported in patent publication US20070083677A1, “Valves, devices, and methods for endobronchial therapy” (Nektar Therapeutics, priority 2005, published 2007).

Assay: 5 day use life study: antibiotic delivered through valve and adapter under simulated ventilator conditions (jet nebulizer, cloverleaf valve)
Settings: for % CONTENT (%), Adapter / CONTENT [mg], Adapter: Final Adapter; for MEAN % CONTENT (%), Inspiratory / MEAN % CONTENT (%), Nebulizer / MEAN CONTENT [mg], Inspiratory / MEAN CONTENT [mg], Nebulizer: mean of Day 1, 3, 5
[1] = Device 8022B, in Quarter Normal Saline

| Compound | % CONTENT (%), Adapter (Device 8022A, in WFI) [%] | CONTENT [mg], Adapter (Device 8022A, in WFI) [mg] | MEAN % CONTENT (%), Inspiratory (Device 8022A, in WFI) [%] | MEAN % CONTENT (%), Nebulizer (Device 8022A, in WFI) [%] | MEAN CONTENT [mg], Inspiratory (Device 8022A, in WFI) [mg] | CONTENT [mg], Nebulizer (Device 8022B, in Quarter Normal Saline, Day 1) [mg] | CONTENT [mg], Nebulizer (Device 8022B, in Quarter Normal Saline, Day 5) [mg] | % CONTENT (%), Adapter [1] [%] | CONTENT [mg], Adapter [1] [mg] | MEAN % CONTENT (%), Nebulizer [1] [%] | MEAN CONTENT [mg], Inspiratory [1] [mg] | MEAN CONTENT [mg], Nebulizer [1] [mg] | MEAN CONTENT [mg], Nebulizer (Device 8022A, in WFI) [mg] | % CONTENT (%), Adapter (Device 8022B, in WFI) [%] | CONTENT [mg], Adapter (Device 8022B, in WFI) [mg] | MEAN % CONTENT (%), Inspiratory (Device 8022B, in WFI) [%] | MEAN % CONTENT (%), Nebulizer (Device 8022B, in WFI) [%] | MEAN CONTENT [mg], Inspiratory (Device 8022B, in WFI) [mg] | MEAN CONTENT [mg], Nebulizer (Device 8022B, in WFI) [mg] |
| --- | --- | --- | --- | --- | --- | --- | --- | --- | --- | --- | --- | --- | --- | --- | --- | --- | --- | --- | --- |
| CN[C@H](CC(C)C)C(=O)N[C@H]1C(=O)N[C@@H](CC(N)=O)C(=O)N[C@H]2C(=O)N[C@H]3C(=O)N[C@H](C(=O)N[C@H](C(=O)O)c4cc(O)cc(O)c4-c4cc3ccc4O)[C@H](O)c3ccc(c(Cl)c3)Oc3cc2cc(c3O[C@@H]2O[C@H](CO)[C@@H](O)[C@H](O)[C@H]2O[C@H]2C[C@](C)(N)[C@H](O)[C@H](C)O2)Oc2ccc(cc2Cl)[C@H]1O [Vancomycin, vancomycin] | 0.5 | 2.7 | 16.1 | 37.2 | 96.6 | 275.9 | 290.3 | 0.1 | 0.3 | 44.5 | 72.5 | 266.9 | – | – | – | – | – | – | – |
| gentamicin | 0.0 | 0.2 | 15.8 | 31.7 | 95.0 | – | – | – | – | – | – | – | 190.5 | 0.1 | 0.3 | 16.5 | 38.0 | 99.0 | 228.2 |
